Measurements: publication PMC5308254, “Bioactivity of Natural and Engineered Antimicrobial Peptides from Venom of the Scorpions Urodacus yaschenkoi and U. manicatus” (Toxins, 2017)
No end group written: not given here.

Legend:
Details in all cases: calculated based on HC50 values (pig erythrocytes) and MIC; ratio HC50 / MIC
[1] = system: Micrococcus luteus (DSM20030); assay: Growth inhibition assay (MIC), M. luteus; type: cell-based
Experimental: (§1) The minimal inhibitory concentration (MIC) of each AMPs was determined against the Gram-positive bacteria Listeria monocytogenes (DSM20600), L. grayi (DSM20601), L. fleischmannii (DSM24998), Staphylococcus aureus (DSM2569) and Micrococcus luteus (DSM20030), and the Gram-negative species Escherichia coli (D31) and Pseudomonas aeruginosa (DSM50071). The scorpion peptides were prepared at concentrations of 0.015–250 μM. The assays were carried out in 384-well plates (Greiner Bio One, Frickenhausen, Germany) using Brain Heart Infusion Broth (BHIB) medium for Listeria spp., Tryptic Soy Broth (TSB) for S. aureus, and lysogeny broth (LB) for the others. The bacteria were cultivated overnight at either 37 °C (Listeria spp., S. aureus, E. coli and P. aeruginosa) or 30 °C (M. luteus) and subcultured in fresh media before the growth inhibition assays. Growth inhibition was measured as previously described.

L. grayi (DSM20601) = assay: Growth inhibition assay (MIC), L. grayi; type: cell-based, Listeria grayi
Experimental: as §1

[2] = system: L. fleischmannii (DSM24998); assay: Growth inhibition assay (MIC), L. fleischmannii; type: cell-based, Listeria fleischmannii
Experimental: as §1

Substance | Therapeutic index (TI) M. luteus [1] | Therapeutic index (TI) L. grayi (L. grayi (DSM20601)) | Therapeutic index (TI) L. fleischmannii [2]
IFGAIWSGIKSLF-NH2 [D1] | 11.99 | 5.99 | 11.99
FPFLKLSLKIPKSAIKSAIKRL-NH2 [D10] | 6904 | 215.75 | 57.53
GFWGKLWEGVKSAI-NH2 [Um3] | 63.10 | 31.55 | 31.55
IFKAIWSGIKSLF-NH2 [Um5] | 29.62 | 29.62 | 29.62
ILSAIWSGIKSLF-NH2 [UyCT3] | 14.53 | 7.26 | 14.53
GFWGKLLEGVKKAI-NH2 [D5] | 204.50 | 204.50 | 109.06
FPFLLSLIPSAISAIKRL-NH2 [Uy234] | 52.25 | 26.12 | 
FLSTIWNGIKSLF-NH2 [D2] | 6.12 |  | 1.63
GFWGKLWEGVKNAIKKK-NH2 [D11] | 4440 | 1110 | 1110
ISQSDAILSAIWSGIKSLF-NH2 [Um2] | 32.25 |  | 
FLSTIWNGIKGLL-NH2 [Uy192] | 10.37 | 10.37 | 38.90
IWSAIWSGIKGLL-NH2 [UyCT5] | 5.14 | 2.57 | 2.57
ILSAIWSGIKGLL-NH2 [Uy17] | 9.22 |  | 
GFWGKLWEGVKNAI-NH2 [UyCT1] | 142.50 | 35.62 | 35.62
